PubChem BioAssay AID1159578 | Peter MacCallum Cancer Centre | 2015
The deposit covers about 18,000 reagents; shown is a random part of them. Over the whole deposit, about 1,030 (5.7%) are marked active. 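Inactive calls also include pools with fewer than 3300 nuclei, whose migration was not assessed.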 The raw values are shown without normalisation. Entries without a mark were called inactive. Not all columns of the deposit are shown.

- Test: 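siRNA pools altering how lymphatic endothelial cells close a scratch wound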 (primary screen)
- Cell system: human lymphatic endothelial cells
- Reagents: siRNA pool against human genes, 40 nM
- Duration: 48 h after transfection
- Detection: 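High-content imaging of dye-stained cells in a scratch assay measures filled wound area and nuclei per well; duplicate means given as ratio to mock and robust z-score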
- Reading the numbers: migration robust z-score: higher = faster migration into the scratch; nuclei per well: higher = more cells in the well
- Active means: 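Pools averaging fewer than 3300 nuclei are never called; remaining pools count as changed when migration robust z lies outside -2 to 2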
- Calls: active = migration changed; inactive = no migration change, or too few cells

What did the screen give for EMP3?
migration robust z-score: -0.3; nuclei per well, duplicate mean: 5195

With RPL26L1, what does the deposit list?
migration robust z-score: -1.27; nuclei per well, duplicate mean: 3672

For AP1M1, what was measured?
migration robust z-score: -0.28; nuclei per well, duplicate mean: 7297

Which result is listed for RAB3IL1?
migration robust z-score: -1.47; nuclei per well, duplicate mean: 5741

What is on record for OR8B8?
migration robust z-score: -0.57; nuclei per well, duplicate mean: 4803

What did the screen give for IZUMO2?
migration robust z-score: 0.22; nuclei per well, duplicate mean: 6188

Which result is listed for WDR88?
migration robust z-score: -0.05; nuclei per well, duplicate mean: 3728

What is on record for DNER?
migration robust z-score: -1.08; nuclei per well, duplicate mean: 5622

What is on record for MXD1?
migration robust z-score: -1.77; nuclei per well, duplicate mean: 5732

With UBL4A, what was measured?
migration robust z-score: 2.23 (active); nuclei per well, duplicate mean: 5711

What did the screen give for ETNPPL?
migration robust z-score: 1.61; nuclei per well, duplicate mean: 5213

For PRDM4, how do the results read?
migration robust z-score: -0.39; nuclei per well, duplicate mean: 6304

What is on record for GCM1?
migration robust z-score: 0.36; nuclei per well, duplicate mean: 3926

What is on record for EHBP1?
migration robust z-score: -0.48; nuclei per well, duplicate mean: 6158

With BLOC1S1, what was measured?
migration robust z-score: -0.77; nuclei per well, duplicate mean: 4679

How did the screen score ARRDC3?
migration robust z-score: -0.08; nuclei per well, duplicate mean: 6643

Which result is listed for RAB12?
migration robust z-score: -0.18; nuclei per well, duplicate mean: 5088

What did the screen give for SEMA3F?
migration robust z-score: 0.64; nuclei per well, duplicate mean: 6878

How did the screen score KCNIP2?
migration robust z-score: -1.87; nuclei per well, duplicate mean: 5674

With SPIC, what does the deposit list?
migration robust z-score: -0.34; nuclei per well, duplicate mean: 6475

What is on record for UBE3D?
migration robust z-score: 0.6; nuclei per well, duplicate mean: 5474
